What was measured:
[1] = organism: Rattus norvegicus; test: Evaluated for antiinflammatory activity in granuloma bioassay and expressed as relative adrenal weight; format: functional
Method in brief: (§1)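 Male Sprague–Dawley rats (100–200 g), acclimated 1 week under controlled lighting. Each rat got one cotton pellet (35 ± 1 mg) loaded with 2 mg steroid in acetone and one vehicle pellet; controls got two vehicle pellets. Rats were killed 7 days later. Readouts: thymus and adrenal weights, initial/final body weight, plasma corticosterone by 3H radioimmunoassay of cardiac blood. Mean ± SEM, n=6, Student's t test.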

[2] = organism: Rattus norvegicus; test: Evaluated for antiinflammatory activity in granuloma bioassay and expressed as relative thymus weight; format: functional; method in brief: as §1
[3] = Octanol- water partition coefficient was determined.

CCNC(=O)[C@H](O)[C@@]1(O)CC[C@H]2[C@@H]3CCC4=CC(=O)C=C[C@]4(C)[C@H]3[C@@H](O)C[C@@]21C
Relative adrenal weight [1]: 15.7 mg 100g-1
Relative thymus weight [2]: 204.9 mg 100g-1
Partition coefficient [3]: 17.5

CCNC(=O)[C@@H](O)[C@@]1(O)CC[C@H]2[C@@H]3CCC4=CC(=O)C=C[C@]4(C)[C@H]3[C@@H](O)C[C@@]21C
Relative adrenal weight [1]: 12.9 mg 100g-1
Relative thymus weight [2]: 256.8 mg 100g-1
Partition coefficient [3]: 16.3

— ChEMBL document CHEMBL1123844, “Synthesis of new antiinflammatory steroidal 20-carboxamides: (20R)- and (20S)-21-(N-substituted amino)-11 beta,17,20-trihydroxy-3,21-dioxo-1,4- pregnadiene” (J Med Chem, 1987)
